{"source": "PubChem BioAssay AID504444", "about": "(National Center for Advancing Translational Sciences (NCATS), 2011)", "note": "The campaign covered roughly 360,000 compounds. About 7,500 (2.1%) were called active. This list was built around the results that the source calls inconclusive (neither active nor inactive); the mix of calls is not that of the screen. Calls follow the shape of the dose curve; as a rule, active = well fitted inhibition curve with a large enough effect; inconclusive = small, poorly fitted or top-dose-only effect, or effect the other way; inactive = flat fitted curve, though single readings scatter. Where the call is inconclusive, the potency comes from a doubtful curve fit. % is scaled to controls: 0 for no effect and ±100 for the full control effect; potency is read from the fitted curve at half-maximal effect."}
{"test": "Nrf2 qHTS screen for inhibitors; also: nearly all actives have a fitted effect of over 60% in size", "conditions": "A549 ARE-Fluc reporter, luciferase luminescence, 18-24 h; activity change, negative = inhibition: at 46 µM (top of the series)", "outline": "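Nrf2 activity is the BugLite luminescence, read 15 min after reagent at room temperature, following CellTiter-Fluor cytotoxicity readout (30 min, 37C). Compound titrations were applied for 18-24 h to 5000 A549 ARE_Fluc cells/well in 5% FBS OPTI-MEM.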"}
{"smiles": "Cc1cc2cc(CNC(=O)c3ccc(S(=O)(=O)N4CCCCC4)cc3)ccc2n1C", "Potency": "inconclusive: 0.92 µM [falling, partial curve, poor fit]"}
{"smiles": "COCCc1nn2c(=O)cc(COC(=O)c3ccco3)nc2s1", "activity change, negative = inhibition": "inactive: 27.6%"}
{"smiles": "COc1cccc(-c2nn(C)c3sc(C(=O)NCc4ccc(C)o4)cc23)c1", "Potency": "inconclusive: 29.1 µM [falling, single point]"}
{"smiles": "CC(=O)Oc1ccc(C(=O)Nc2ccc3c(c2)OCCO3)cc1", "Potency": "inconclusive: 2.06 µM [activator, partial curve]"}
{"smiles": "CC(C)c1c(O)c2c(n(-c3ccccc3)c1=O)CCCC2", "Potency": "inconclusive: 32.6 µM [activator, partial curve, poor fit]"}
{"smiles": "COC(=O)C1C(=O)c2c([nH]c(C(=O)OCC3CCCO3)c2C)CC1C", "note": "(stereo unspecified)", "Potency": "inconclusive: 0.651 µM [activator, full curve]"}
{"smiles": "CN1CCC(N(C)C(=S)NC(=O)C23CC4CC(CC(C4)C2)C3)CC1", "Potency": "inconclusive: 32.6 µM [falling, single point]"}
{"smiles": "CN(CCCNC(=O)Cn1ncc2c([nH]c3ccccc32)c1=O)Cc1ccccc1", "activity change, negative = inhibition": "inactive: 3.09%"}
{"smiles": "Cc1ccc2c(c1)-c1c(cnn1CC(=O)N1CCN(c3cc(C)ccc3C)CC1)CO2", "Potency": "inconclusive: 29.1 µM [falling, single point]"}
{"smiles": "O=C(NNc1ccccc1)C(=O)NNS(=O)(=O)c1ccc([N+](=O)[O-])cc1", "Potency": "active: 18.4 µM"}
{"smiles": "Cc1ccccc1S(=O)(=O)Cc1ccc(C(=O)NCCc2ccccc2)o1", "Potency": "inconclusive: 11.6 µM [activator, partial curve]"}
{"smiles": "CCn1nc(C(=O)Nc2ccc(Cl)c(S(=O)(=O)N3CCOCC3)c2)c2ccccc2c1=O", "Potency": "inconclusive: 23.1 µM [falling, single point]"}
{"smiles": "COc1ccc(/C=C/c2cc(=O)c3cc(Cl)ccc3o2)cc1", "Potency": "inconclusive: 2.59 µM [falling, partial curve, poor fit]"}
{"smiles": "Cc1ccc(NC(=O)CCSc2ccccn2)cc1", "Potency": "inconclusive: 3.66 µM [activator, partial curve]"}
{"smiles": "CCOC(=O)c1oc2nc3c(cc2c1N)CCCC3", "Potency": "inconclusive: 29.1 µM [activator, single point]"}
{"smiles": "FC(F)(F)c1ccc(Cl)c(-n2c(-c3cc(-c4ccco4)[nH]n3)n[nH]c2=S)c1", "Potency": "inconclusive: 29.1 µM [falling, single point]"}
{"smiles": "Cc1ccc(S(=O)(=O)N2CCCC2c2nc3ccccc3s2)cc1", "note": "(stereo unspecified)", "Potency": "inconclusive: 32.6 µM [falling, single point]"}
{"smiles": "CCCCN=Cc1c(C)[nH]n(-c2ccccc2)c1=S", "activity change, negative = inhibition": "inactive: -13.9%"}
{"smiles": "Cc1nn(CC(=O)Nc2ccc3c(c2)nc(CN2CCCCC2)n3C)c(=O)c2ccccc12", "Potency": "inconclusive: 6.51 µM [falling, partial curve, poor fit]"}
{"smiles": "CCOC(=O)N1CCC(Nc2ncnc3c2cnn3-c2ccccc2)CC1", "Potency": "active: 16.4 µM"}
{"smiles": "CCc1sc(C(=O)NCCc2ccc(S(N)(=O)=O)cc2)cc1C", "Potency": "inconclusive: 7.31 µM [falling, full curve, poor fit]"}
{"smiles": "CCOc1ccccc1Nc1nc(-c2sc(NC(=O)c3ccco3)nc2C)cs1", "Potency": "inconclusive: 4.11 µM [activator, full curve, poor fit]"}
{"smiles": "COc1cccc2cc(C(=O)N3CCCc4ccccc43)oc12", "Potency": "inconclusive: 32.6 µM [falling, partial curve, poor fit]"}
{"smiles": "COc1ccc(OCc2cc(C(=O)NCC3CCOCC3)no2)c(Cl)c1", "Potency": "inconclusive: 8.2 µM [activator, partial curve]"}
{"smiles": "COc1ccc(/C(N)=N/OC(=O)c2ccco2)cc1", "Potency": "inconclusive: 3.66 µM [activator, full curve]"}
{"smiles": "CCN(CC)c1ccc(-c2nnc(SCC(=O)Nc3ccccc3C#N)n2-c2ccccc2)cc1", "Potency": "inconclusive: 29.1 µM [falling, single point]"}
{"smiles": "Cc1ccc(C)c(N2CCN(CC(=O)Nc3ccc4[nH]c(=O)[nH]c4c3)CC2)c1", "Potency": "inconclusive: 1.46 µM [falling, full curve, poor fit]"}
{"smiles": "Cc1ccc(OCC(=O)Nc2ccc(-c3nnc(-c4ccco4)o3)cc2)cc1", "Potency": "inconclusive: 11.6 µM [activator, partial curve]"}
{"smiles": "CCCN1CCN(CCCNC(=O)c2ccc3c(c2)sc2nc(-c4ccc(OCC)cc4)cn23)CC1", "Potency": "inconclusive: 1.84 µM [falling, full curve, poor fit]"}
{"smiles": "COc1ccc(CNC(=O)C2CC(c3cc(C(F)(F)F)cc(C(F)(F)F)c3)=NO2)cc1", "note": "(stereo unspecified)", "Potency": "inconclusive: 9.2 µM [activator, partial curve, poor fit]"}
{"smiles": "CCOc1ccc(-n2cnnn2)cc1S(=O)(=O)Nc1c(C)cccc1C", "Potency": "inconclusive: 0.326 µM [falling, partial curve, poor fit]"}
{"smiles": "CC1CCN(C(=O)c2cccc(NC(=O)c3cccs3)c2)CC1", "Potency": "inconclusive: 25.9 µM [falling, single point]"}
{"smiles": "C/C(=N\\Nc1cc(Cl)nc(C)n1)c1ccc(Cl)c(Cl)c1", "Potency": "inconclusive: 29.1 µM [falling, single point]"}
{"smiles": "N#Cc1c(SCC(=O)Nc2nc3ccc(Br)cc3s2)sc2c(O)cc(=O)[nH]c12", "activity change, negative = inhibition": "inactive: 0.24%"}
{"smiles": "Cc1noc(NC(=O)c2c(-c3c(Cl)cccc3Cl)noc2C)c1[N+](=O)[O-]", "Potency": "active: 14.6 µM"}
{"smiles": "COC(=O)CSc1nnc(SCc2ccc(OC)cc2)s1", "Potency": "inconclusive: 6.51 µM [falling, full curve]"}
{"smiles": "O=C(N/N=C/c1ccccc1)c1c(O)c2ccccc2[nH]c1=O", "Potency": "inconclusive: 29.1 µM [falling, single point]"}
{"smiles": "CCC(Sc1nc2cc(OC)c(OC)cc2c(=O)n1Cc1ccc(OC)cc1)C(=O)NCCOC", "note": "(stereo unspecified)", "Potency": "inconclusive: 25.9 µM [falling, single point]"}
{"smiles": "Oc1ccc2ccccc2c1CNc1ccc(Br)cc1", "activity change, negative = inhibition": "inactive: -1.47%"}
{"smiles": "CC(C)Nc1ccc(Nc2ccnc3cc4ccccc4cc23)cc1", "Potency": "inconclusive: 29.1 µM [falling, single point]"}
{"smiles": "CC(Oc1ccc(-c2ccccc2)cc1)C(=O)N/N=C/c1cccnc1", "note": "(stereo unspecified)", "activity change, negative = inhibition": "inactive: -15.7%"}
